Data source: PubChem BioAssay AID1508597 (Cure First, 2020)
Screen: 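Survival screen with siRNA in ovarian cancer cells derived from patients, with or without rucaparib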 (primary screen). Cells: human ovarian carcinoma lines grown from tumours: OCI-P5x (papillary serous) and OCI-C5x (clear cell). Knock-down reagent: siRNA pool against human genes, 1.25 pmol siRNA per well. Timing: 72 h or 96 h, depending on the cell culture. Treatment: rucaparib 20 µM (about IC30) or vehicle, present until read-out. Rucaparib or vehicle: Vehicle. Cell line: OCI-C5x (clear cell). Measurement: 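ATP luminescence measured at 72 or 96 h according to the culture, then normalised and expressed as percent viability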. Direction: viability, normalised: higher = more viable cells remaining. Active means: 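Active when normalised viability falls below 80 percent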. Meaning of the calls: active = viability under 80%; inactive = viability 80% or more.
This is an unselected part of the about 2,100 reagents, in one setting of the screen. 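Calls flag viability under 80% in either arm, not effects specific to rucaparib; the reference for percent is not stated.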 A reagent listed more than once was tested more than once; the source does not tell the runs apart. Not stated in the record: the 100% reference.

| target | technical replicate | viability, normalised (%) | Call |
| --- | --- | --- | --- |
| PAXIP1 | 1 | 70.7 | active |
| PAXIP1 | 2 | 60.3 | active |
| PAXIP1 | 3 | 69.3 | active |
| DDX11 | 1 | 26.2 | active |
| DDX11 | 2 | 37.1 | active |
| DDX11 | 3 | 19.3 | active |
| ESR1 | 1 | 59.9 | active |
| ESR1 | 2 | 63.9 | active |
| ESR1 | 3 | 63.5 | active |
| ZBTB7A | 1 | 44.6 | active |
| ZBTB7A | 2 | 40.8 | active |
| ZBTB7A | 3 | 44.6 | active |
| RAG2 | 1 | 37.3 | active |
| RAG2 | 2 | 28.9 | active |
| RAG2 | 3 | 36.6 | active |
| DGKG | 1 | 54.2 | active |
| DGKG | 2 | 44.5 | active |
| DGKG | 3 | 58.1 | active |
| DHX33 | 1 | 60.3 | active |
| DHX33 | 2 | 56.3 | active |
| DHX33 | 3 | 56.3 | active |
| BRD8 | 1 | 42.8 | active |
| BRD8 | 2 | 46.7 | active |
| BRD8 | 3 | 43.1 | active |
| LSM1 | 1 | 63.6 | active |
| LSM1 | 2 | 61.7 | active |
| LSM1 | 3 | 51.7 | active |
| GJA10 | 1 | 43.3 | active |
| GJA10 | 2 | 51.2 | active |
| GJA10 | 3 | 45.6 | active |
| FANCI | 1 | 63.3 | active |
| FANCI | 2 | 63.6 | active |
| FANCI | 3 | 52.7 | active |
| HDAC11 | 1 | 35.9 | active |
| HDAC11 | 2 | 41.6 | active |
| HDAC11 | 3 | 58.2 | active |
| SULF2 | 1 | 63.2 | active |
| SULF2 | 2 | 60 | active |
| SULF2 | 3 | 51.9 | active |
| BLK | 1 | 48.1 | active |
| BLK | 2 | 68.2 | active |
| BLK | 3 | 51 | active |
| TADA2A | 1 | 64.6 | active |
| TADA2A | 2 | 64.5 | active |
| TADA2A | 3 | 59.8 | active |
| PRC1 | 1 | 72.7 | active |
| PRC1 | 2 | 59.3 | active |
| PRC1 | 3 | 50.5 | active |
| SMARCA4 | 1 | 32.4 | active |
| SMARCA4 | 1 | 73.8 | active |
| SMARCA4 | 2 | 57.5 | active |
| SMARCA4 | 2 | 27.9 | active |
| SMARCA4 | 3 | 26.1 | active |
| SMARCA4 | 3 | 48.4 | active |
| CRY2 | 1 | 44.1 | active |
| CRY2 | 2 | 58.1 | active |
| CRY2 | 3 | 51.3 | active |

A stretch from the list above, for reference:
| target | technical replicate | viability, normalised (%) | Call |
| --- | --- | --- | --- |
| GJA10 | 3 | 45.6 | active |
| FANCI | 1 | 63.3 | active |
| FANCI | 2 | 63.6 | active |
| FANCI | 3 | 52.7 | active |
| HDAC11 | 1 | 35.9 | active |
